Measurements as given in PubChem BioAssay AID330 (DTP/NCI, 2004).
The list shows only some results of the screen, not a fair sample: it is rich in T/C values a quarter to a half above the control, in often repeated tests (any T/C) and in doses without a T/C. Further doses and runs are listed elsewhere. T/C is the treated group as % of the vehicle group. Some entries give survivors of the animals treated and no T/C: the source files T/C as zero there, which appears to mark a toxic dose or a test without result, not a measured value. Some doses without a T/C left all or most animals alive at the check, yet need not have been tolerated: the source hardly ever lists a survival T/C far under the control, and the zero likely stands for such cases as well. Counts of survivors are from the toxicity check (mostly the fifth day) where no day follows; animals may have died later. Schedule codes are those of the source, read here as Q, the interval in days (D) or hours (H), X, the number of doses. Some entries hold several experiments; the results are listed from low to high. For survival time, this PubChem deposit counts one and a half times the control or more as active, and values a quarter to a half above the control carry no call in these data; other NCI protocols may use other cut-offs. Some T/C values are followed by the survivors on the day toxicity was checked, most often the fifth; without a count, all were alive then.

Tested on: P388 leukemia ip, CD2F1 mice, survival T/C
Experiment: NCI In Vivo Anticancer Drug Screen. Data for tumor model P388 Leukemia (intraperitoneal) in CD2F1 (CDF1) mice
Conditions: T/C endpoint: median survival time, higher T/C = longer survival
[1] = dose: 50.0 mg/kg/injection, schedule: Q01DX009 (ip), vehicle: saline with Tween-80
[2] = dose: 100.0 mg/kg/injection, schedule: Q01DX009 (ip), vehicle: saline with Tween-80
[3] = dose: 200.0 mg/kg/injection, schedule: Q01DX005 (ip), vehicle: saline with Tween-80
[4] = dose: 400.0 mg/kg/injection, schedule: Q01DX005 (ip), vehicle: saline with Tween-80
[5] = dose: 100.0 mg/kg/injection, schedule: Q01DX009 (ip), vehicle: Klucel (hydroxypropylcellulose) (HPC)
[6] = dose: 50.0 mg/kg/injection, schedule: Q01DX009 (ip), vehicle: Klucel (hydroxypropylcellulose) (HPC)
[7] = dose: 200.0 mg/kg/injection, schedule: Q01DX009 (ip), vehicle: Klucel (hydroxypropylcellulose) (HPC)
[8] = dose: 100.0 mg/kg/injection, schedule: Q01DX009 (ip), vehicle: water
[9] = dose: 200.0 mg/kg/injection, schedule: Q01DX009 (ip), vehicle: water
[10] = dose: 1.25 mg/kg/injection, schedule: Q01DX009 (ip), vehicle: saline with Tween-80
[11] = dose: 100.0 mg/kg/injection, schedule: Q01DX005 (ip), vehicle: Klucel (hydroxypropylcellulose) (HPC)
[12] = dose: 200.0 mg/kg/injection, schedule: Q01DX009 (ip), vehicle: saline with Tween-80
[13] = dose: 200.0 mg/kg/injection, schedule: Q01DX005 (ip), vehicle: Klucel (hydroxypropylcellulose) (HPC)
[14] = dose: 25.0 mg/kg/injection, schedule: Q01DX005 (ip), vehicle: Klucel (hydroxypropylcellulose) (HPC)

`O=C(N/N=C/c1ccccn1)N/N=C/c1ccccn1` was tested, and the survivor count (dose: 200.0 mg/kg/injection, schedule: Q01DX009 (ip), vehicle: distilled water + Tween-80) was 3 of 6 and the survivor count (dose: 400.0 mg/kg/injection, schedule: Q01DX009 (ip), vehicle: distilled water + Tween-80) was 0 of 6.
For `ClCC#CCCl`, the survivor count (dose: 25.0 mg/kg/injection, schedule: Q01DX009 (ip), vehicle: saline with Tween-80) was 4 of 6, the survivor count [1] was 0 of 6 and the survivor count [2] was 0 of 6.
For `Cc1cc(C)cc(C(=O)NC(=C(NC(=O)c2cc(C)cc(C)c2)c2ccncc2)c2ccncc2)c1` (mixture of isomers), the survivor count (dose: 100.0 mg/kg/injection, schedule: Q01DX005 (ip), vehicle: saline with Tween-80) was 6 of 6 and the survivor count [3] was 6 of 6.
`CC1(C)OC1CS(=O)c1ccccc1` (stereo not given) was tested, and the T/C (dose: 150.0 mg/kg/injection, schedule: Q01DX009 (ip), vehicle: saline with Tween-80) was 142 % of control.
With `CCC1SCC(=O)N1c1nncs1` (stereo not given) the T/C [3] was 141 % of control and the survivor count [4] was 3 of 6.
With `CCCCCCCCCCCCCCCCCSc1c(O)c(O)c2cccnc2c1O` (tested in a mixture with another compound) the survivor count (dose: 240.0 mg/kg/injection, schedule: Q01DX005 (ip), vehicle: Klucel (hydroxypropylcellulose) (HPC)) was 0 of 6.
For `CS(=O)(=O)c1nc2ccc(N3C(=O)c4ccccc4C3=O)cc2s1`, the survivor count [5] was 6 of 6.
For `CC(C)(C)c1ccc(N)c(N)c1`, the survivor count (dose: 200.0 mg/kg/injection, schedule: Q01DX009 (ip), vehicle: DMSO) was 1 of 6.
For `COc1cc2c(cc1OC)CN(C)C(C)C2` (stereo not given), the survivor count (dose: 100.0 mg/kg/injection, schedule: Q01DX005 (ip), vehicle: saline) was 0 of 5 and the survivor count (dose: 200.0 mg/kg/injection, schedule: Q01DX005 (ip), vehicle: saline) was 0 of 5.
`COc1ccc(C(=O)SCCCN=C(N)N)cc1` was tested, and the survivor count [3] was 0 of 5.
With `O=C(O)C(CSC(c1ccccc1)(c1ccccc1)c1ccccc1)NC(c1ccccc1)(c1ccccc1)c1ccccc1` (stereo not given) the survivor count (dose: 200.0 mg/kg/injection, schedule: Q01DX009 (ip), vehicle: other) was 4 of 6.
With `CCn1c(=O)c2[nH]c(Br)nc2n(CC)c1=O` the T/C [6] was 125 % of control, the T/C [5] was 132 % of control [5 of 6 alive] and the survivor count [7] was 0 of 6.
In the case of `O=C(NCc1ccco1)Nc1cccc2c(NC(=O)NCc3ccco3)cccc12`, the survivor count (dose: 60.0 mg/kg/injection, schedule: Q01DX005 (ip), vehicle: saline with Tween-80) is reported as 6 of 6 and the survivor count (dose: 120.0 mg/kg/injection, schedule: Q01DX005 (ip), vehicle: saline with Tween-80) is reported as 6 of 6.
With `COc1cccc2c1C(=O)c1c(O)c3c(c(O)c1C2=O)C[C@@](O)(/C(C)=N/NS(C)(=O)=O)C[C@@H]3OC1CC(N)C(O)C(C)O1` (stereo not given in full) the T/C (dose: 6.25 mg/kg/injection, schedule: Q01DX009 (ip), vehicle: saline) was 136 % of control, the T/C (dose: 12.5 mg/kg/injection, schedule: Q01DX009 (ip), vehicle: saline) was 148 % of control and the survivor count (dose: 50.0 mg/kg/injection, schedule: Q01DX009 (ip), vehicle: water) was 6 of 6. The survivor count [8] was 0 of 6 and 1 of 6 and the survivor count [9] was 0 of 6.
`CN1CCCN(C(c2ccccc2)c2ccc(Br)cc2)CC1` (stereo not given) was tested, and the survivor count (dose: 200.0 mg/kg/injection, schedule: Q01DX009 (ip), vehicle: saline) was 0 of 6 and the survivor count (dose: 400.0 mg/kg/injection, schedule: Q01DX009 (ip), vehicle: saline) was 0 of 6.
With `O=C(Nc1cccc2ccccc12)c1cc2c(cc1Br)OCO2` the survivor count (dose: 100.0 mg/kg/injection, schedule: Q01DX009 (ip), vehicle: distilled water + Tween-80) was 6 of 6.
In the case of `Nc1cc2c(cc1C(=O)N1CCc3ccccc31)OCO2`, the survivor count (dose: 400.0 mg/kg/injection, schedule: Q01DX009 (ip), vehicle: other) is reported as 0 of 6.
In the case of `O=S(=O)(Nc1ncccn1)c1ccc(NCc2c3ccccc3nc3ccccc23)cc1`, the T/C (dose: 200.0 mg/kg/injection, schedule: Q04DX002 (ip), vehicle: Klucel (hydroxypropylcellulose) (HPC)) is reported as 135 % of control.
`COC[C@H]1OC(=O)c2coc3c2[C@@]1(C)C1=C(C3=O)[C@@H]2CCC(=O)[C@@]2(C)C[C@H]1OC(C)=O` was tested, and the T/C (dose: 0.63 mg/kg/injection, schedule: Q01DX009 (ip), vehicle: saline with Tween-80) was 134 % of control, the T/C [10] was 130 % of control and the survivor count [10] was 6 of 6. For the same compound, the survivor count (dose: 5.0 mg/kg/injection, schedule: Q01DX009 (ip), vehicle: saline with Tween-80) was 3 of 6 and the survivor count (dose: 10.0 mg/kg/injection, schedule: Q01DX009 (ip), vehicle: saline with Tween-80) was 2 of 6.
`CSc1nc(SC)c2nc(SC)sc2n1` was tested, and the survivor count (dose: 200.0 mg/kg/injection, schedule: Q01DX001 (ip), vehicle: saline with Tween-80) was 6 of 6.
`CCCCCCCCCCCCCCCCCC[N+]1([O-])CCCC1` was tested, and the survivor count [8] was 5 of 6 and the survivor count [9] was 0 of 4.
`CN(C)C1c2cc(Cl)ccc2-c2c(Cl)cc(Cl)cc21` (stereo not given) was tested, and the survivor count [11] was 6 of 6.
`CCN(CC)CCOc1cccc2c1C(=O)c1c(O)cccc1C2=O` was tested, and the T/C [2] was 140 % of control and the survivor count [12] was 4 of 6.
In the case of `COc1c(OCC(O)CN2CCCCC2)c2c(C)coc2c2ccoc12` (stereo not given), the survivor count [13] is reported as 0 of 6.
For `COC(=O)C(CCC(=O)CCl)N1C(=O)c2ccccc2C1=O` (stereo not given), the survivor count [5] was 3 of 6 and the survivor count [7] was 0 of 6.
`COC(=O)/C=C1\C=CC=CC12C(C(=O)OC)c1ccccc1C(C(=O)OC)C2C(=O)OC` (stereo not given) was tested, and the survivor count [1] was 6 of 6, the survivor count [2] was 6 of 6 and the survivor count [12] was 6 of 6.
`O=C1CSC(=S)N1c1cccc(Cl)c1` was tested, and the T/C [7] was 130 % of control.
`COc1cccc(-n2cc[n+](C)c2/C=N/O)c1` was tested, and the survivor count [2] was 0 of 6.
For `CCCCn1cnc2c(=S)nc[nH]c21`, the survivor count [4] was 1 of 6.
With `C/C(=C\N1CCN(c2ccc(Cl)cc2)C(C)C1)C(=O)c1ccccc1` (stereo not given) the survivor count (dose: 400.0 mg/kg/injection, schedule: Q04DX003 (ip), vehicle: saline with Tween-80) was 6 of 6.
For `CCCCCC(CN(C)C)C(=O)/C=C/c1ccc(C)cc1` (stereo not given), the survivor count [3] was 1 of 6.
`COC(=O)C(C)N(CCCl)P(=O)(N1CC1)N1CC1` (stereo not given) was tested, and the T/C (dose: 15.0 mg/kg/injection, schedule: Q01DX005 (ip), vehicle: saline) was 136 % of control, the survivor count (dose: 60.0 mg/kg/injection, schedule: Q01DX005 (ip), vehicle: saline) was 6 of 6 and the survivor count (dose: 120.0 mg/kg/injection, schedule: Q01DX005 (ip), vehicle: saline) was 1 of 6. The survivor count (dose: 240.0 mg/kg/injection, schedule: Q01DX005 (ip), vehicle: saline) was 0 of 6.
`c1c[nH]c2c3ccncc3c3ncnc3c2c1` was tested, and the survivor count [13] was 6 of 6.
For `CN=C(NC)c1ccc(NC(=O)/C=C\c2ccc(/C=C/C(=O)Nc3ccc(C(=NC)NC)cc3)cc2)cc1`, the T/C (dose: 1.56 mg/kg/injection, schedule: Q01DX005 (ip), vehicle: Klucel (hydroxypropylcellulose) (HPC)) was 134 and 136 % of control, the T/C (dose: 3.12 mg/kg/injection, schedule: Q01DX005 (ip), vehicle: Klucel (hydroxypropylcellulose) (HPC)) was 125, 137, 144 % of control and the T/C (dose: 6.25 mg/kg/injection, schedule: Q01DX005 (ip), vehicle: Klucel (hydroxypropylcellulose) (HPC)) was 123, 140, 151, 163 % of control. For the same compound, the T/C (dose: 12.5 mg/kg/injection, schedule: Q01DX005 (ip), vehicle: Klucel (hydroxypropylcellulose) (HPC)) was 157 [4 of 6 alive], 161, 191, 207 % of control, the T/C [14] was 105 [8 of 10 alive] and 236 % of control [4 of 5 alive] and the survivor count [14] was 0 of 6. The survivor count (dose: 50.0 mg/kg/injection, schedule: Q01DX005 (ip), vehicle: Klucel (hydroxypropylcellulose) (HPC)) was 0 of 6, the survivor count [11] was 0 of 6 and the survivor count [13] was 0 of 6.
With `CC(=O)/C(=N/O)C(C)=NCc1ccccc1` the survivor count (dose: 25.0 mg/kg/injection, schedule: Q01DX009 (ip), vehicle: Klucel (hydroxypropylcellulose) (HPC)) was 6 of 6 and the survivor count [6] was 6 of 6.
